Earlier results as cited in patent US7265155B2, “Treating a variety of pathological conditions, including spasticity and convulsions, by effecting a modulation of CNS activity with isovaleramide, isovaleric acid, or a related compound” (NBS Pharmaceuticals, Inc., priority 1996, dated 2007).

Test system: GABA levels in the brains of mice
Conditions: reported in the literature; cited from earlier work

Question: For `CC(C)CC(=O)O` [Isovaleric acid, isovaleric acid], which “GABA levels in the brains of mice” value is on record?
Answer: Its value is “slight increase in GABA levels”.
